# Measurements as given in the supplement of paper PMC10849652.
# Protein sequences, listed by entry. Tags and fused reporters are not part of them. Lines headed by an entry give the natural chain unless they say otherwise; changes in a name come on top.
# UniProt P49069: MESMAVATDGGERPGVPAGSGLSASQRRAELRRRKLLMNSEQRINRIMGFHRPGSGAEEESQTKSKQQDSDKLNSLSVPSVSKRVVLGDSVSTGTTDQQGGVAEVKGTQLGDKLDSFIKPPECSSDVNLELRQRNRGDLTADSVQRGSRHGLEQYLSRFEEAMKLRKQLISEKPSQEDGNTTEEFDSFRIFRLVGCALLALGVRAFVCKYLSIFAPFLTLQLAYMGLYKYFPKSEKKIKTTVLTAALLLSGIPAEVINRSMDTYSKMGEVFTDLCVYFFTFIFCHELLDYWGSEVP
# UniProt P41223: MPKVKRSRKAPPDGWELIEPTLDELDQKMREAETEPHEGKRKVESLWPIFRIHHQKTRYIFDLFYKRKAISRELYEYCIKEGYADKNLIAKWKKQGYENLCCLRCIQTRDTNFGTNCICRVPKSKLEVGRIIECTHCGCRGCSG
# UniProt Q07021: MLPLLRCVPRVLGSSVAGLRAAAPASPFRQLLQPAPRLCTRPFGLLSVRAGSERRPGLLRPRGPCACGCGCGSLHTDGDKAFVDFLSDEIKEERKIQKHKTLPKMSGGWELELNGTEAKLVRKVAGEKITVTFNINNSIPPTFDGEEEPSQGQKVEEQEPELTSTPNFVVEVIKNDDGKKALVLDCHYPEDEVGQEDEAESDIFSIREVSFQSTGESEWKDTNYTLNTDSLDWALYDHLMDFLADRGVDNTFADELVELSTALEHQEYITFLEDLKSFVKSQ
# UniProt Q9BV19: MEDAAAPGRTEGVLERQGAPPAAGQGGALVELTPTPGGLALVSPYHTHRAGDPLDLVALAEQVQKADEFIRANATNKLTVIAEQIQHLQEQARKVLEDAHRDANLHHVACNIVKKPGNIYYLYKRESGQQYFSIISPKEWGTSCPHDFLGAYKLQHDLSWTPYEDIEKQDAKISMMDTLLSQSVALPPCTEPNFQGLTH
# UniProt P10643, whole entry, looked up: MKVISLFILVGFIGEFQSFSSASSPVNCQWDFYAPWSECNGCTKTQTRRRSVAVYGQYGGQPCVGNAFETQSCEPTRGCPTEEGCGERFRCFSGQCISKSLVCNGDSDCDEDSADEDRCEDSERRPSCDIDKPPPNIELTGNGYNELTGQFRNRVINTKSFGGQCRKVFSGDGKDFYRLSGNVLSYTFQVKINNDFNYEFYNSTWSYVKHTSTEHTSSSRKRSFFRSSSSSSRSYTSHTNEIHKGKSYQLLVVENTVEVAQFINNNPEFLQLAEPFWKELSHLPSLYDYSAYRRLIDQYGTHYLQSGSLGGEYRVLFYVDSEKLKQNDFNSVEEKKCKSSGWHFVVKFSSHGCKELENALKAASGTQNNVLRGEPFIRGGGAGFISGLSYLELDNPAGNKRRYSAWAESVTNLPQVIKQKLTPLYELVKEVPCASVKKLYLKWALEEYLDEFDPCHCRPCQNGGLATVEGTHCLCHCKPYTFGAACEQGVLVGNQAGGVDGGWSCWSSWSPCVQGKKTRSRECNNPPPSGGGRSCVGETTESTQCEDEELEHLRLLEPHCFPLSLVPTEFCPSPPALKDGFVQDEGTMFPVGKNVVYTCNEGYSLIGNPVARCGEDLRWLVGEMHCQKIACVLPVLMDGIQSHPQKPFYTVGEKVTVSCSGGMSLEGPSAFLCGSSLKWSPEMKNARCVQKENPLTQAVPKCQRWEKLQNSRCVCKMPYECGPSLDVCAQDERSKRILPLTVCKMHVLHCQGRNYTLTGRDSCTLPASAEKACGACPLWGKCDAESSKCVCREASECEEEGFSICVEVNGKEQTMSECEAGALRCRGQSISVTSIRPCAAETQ
# UniProt P43251: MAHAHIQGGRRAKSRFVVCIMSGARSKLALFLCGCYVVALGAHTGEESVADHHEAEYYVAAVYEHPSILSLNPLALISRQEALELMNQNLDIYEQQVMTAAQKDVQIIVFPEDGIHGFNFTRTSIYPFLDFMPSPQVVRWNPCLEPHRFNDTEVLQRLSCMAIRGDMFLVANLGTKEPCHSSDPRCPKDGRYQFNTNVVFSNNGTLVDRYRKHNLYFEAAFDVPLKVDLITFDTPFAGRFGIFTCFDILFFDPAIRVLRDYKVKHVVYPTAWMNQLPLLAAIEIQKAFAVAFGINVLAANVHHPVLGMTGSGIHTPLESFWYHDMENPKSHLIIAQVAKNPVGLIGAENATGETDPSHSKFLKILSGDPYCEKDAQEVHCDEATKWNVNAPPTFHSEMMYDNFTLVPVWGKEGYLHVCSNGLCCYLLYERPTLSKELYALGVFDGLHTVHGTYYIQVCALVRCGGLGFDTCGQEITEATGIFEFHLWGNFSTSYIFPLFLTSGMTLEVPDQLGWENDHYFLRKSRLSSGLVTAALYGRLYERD
# UniProt Q6P5X5: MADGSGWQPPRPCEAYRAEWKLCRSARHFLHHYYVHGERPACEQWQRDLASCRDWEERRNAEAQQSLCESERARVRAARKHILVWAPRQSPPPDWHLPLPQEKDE
# UniProt Q9Y2V0: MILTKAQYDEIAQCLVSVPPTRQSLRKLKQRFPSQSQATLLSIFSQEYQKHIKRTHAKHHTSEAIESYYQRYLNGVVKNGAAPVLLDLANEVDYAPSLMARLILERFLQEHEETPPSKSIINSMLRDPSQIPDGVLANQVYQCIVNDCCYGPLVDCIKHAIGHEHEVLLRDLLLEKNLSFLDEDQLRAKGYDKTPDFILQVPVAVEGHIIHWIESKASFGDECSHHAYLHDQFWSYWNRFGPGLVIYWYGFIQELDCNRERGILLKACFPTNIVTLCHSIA
# UniProt Q5BKX5: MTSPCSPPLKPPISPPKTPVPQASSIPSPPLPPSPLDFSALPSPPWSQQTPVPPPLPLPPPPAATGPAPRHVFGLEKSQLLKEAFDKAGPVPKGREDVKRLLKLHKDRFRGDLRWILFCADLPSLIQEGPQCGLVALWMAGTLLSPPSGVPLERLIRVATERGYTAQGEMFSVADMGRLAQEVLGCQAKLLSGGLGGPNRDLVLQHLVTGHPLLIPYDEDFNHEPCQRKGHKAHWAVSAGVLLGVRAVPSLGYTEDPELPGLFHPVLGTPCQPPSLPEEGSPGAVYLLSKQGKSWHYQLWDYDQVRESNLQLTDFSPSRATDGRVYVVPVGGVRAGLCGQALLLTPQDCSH
# UniProt Q9H9S4: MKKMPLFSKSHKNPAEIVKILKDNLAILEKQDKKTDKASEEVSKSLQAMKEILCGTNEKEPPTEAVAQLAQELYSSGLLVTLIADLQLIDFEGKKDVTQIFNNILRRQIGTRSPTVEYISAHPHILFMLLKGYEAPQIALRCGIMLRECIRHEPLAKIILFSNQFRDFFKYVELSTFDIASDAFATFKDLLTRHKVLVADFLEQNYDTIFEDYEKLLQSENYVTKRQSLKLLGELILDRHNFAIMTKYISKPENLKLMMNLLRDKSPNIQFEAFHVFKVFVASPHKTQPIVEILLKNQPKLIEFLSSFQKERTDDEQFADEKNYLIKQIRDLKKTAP
# UniProt P27708: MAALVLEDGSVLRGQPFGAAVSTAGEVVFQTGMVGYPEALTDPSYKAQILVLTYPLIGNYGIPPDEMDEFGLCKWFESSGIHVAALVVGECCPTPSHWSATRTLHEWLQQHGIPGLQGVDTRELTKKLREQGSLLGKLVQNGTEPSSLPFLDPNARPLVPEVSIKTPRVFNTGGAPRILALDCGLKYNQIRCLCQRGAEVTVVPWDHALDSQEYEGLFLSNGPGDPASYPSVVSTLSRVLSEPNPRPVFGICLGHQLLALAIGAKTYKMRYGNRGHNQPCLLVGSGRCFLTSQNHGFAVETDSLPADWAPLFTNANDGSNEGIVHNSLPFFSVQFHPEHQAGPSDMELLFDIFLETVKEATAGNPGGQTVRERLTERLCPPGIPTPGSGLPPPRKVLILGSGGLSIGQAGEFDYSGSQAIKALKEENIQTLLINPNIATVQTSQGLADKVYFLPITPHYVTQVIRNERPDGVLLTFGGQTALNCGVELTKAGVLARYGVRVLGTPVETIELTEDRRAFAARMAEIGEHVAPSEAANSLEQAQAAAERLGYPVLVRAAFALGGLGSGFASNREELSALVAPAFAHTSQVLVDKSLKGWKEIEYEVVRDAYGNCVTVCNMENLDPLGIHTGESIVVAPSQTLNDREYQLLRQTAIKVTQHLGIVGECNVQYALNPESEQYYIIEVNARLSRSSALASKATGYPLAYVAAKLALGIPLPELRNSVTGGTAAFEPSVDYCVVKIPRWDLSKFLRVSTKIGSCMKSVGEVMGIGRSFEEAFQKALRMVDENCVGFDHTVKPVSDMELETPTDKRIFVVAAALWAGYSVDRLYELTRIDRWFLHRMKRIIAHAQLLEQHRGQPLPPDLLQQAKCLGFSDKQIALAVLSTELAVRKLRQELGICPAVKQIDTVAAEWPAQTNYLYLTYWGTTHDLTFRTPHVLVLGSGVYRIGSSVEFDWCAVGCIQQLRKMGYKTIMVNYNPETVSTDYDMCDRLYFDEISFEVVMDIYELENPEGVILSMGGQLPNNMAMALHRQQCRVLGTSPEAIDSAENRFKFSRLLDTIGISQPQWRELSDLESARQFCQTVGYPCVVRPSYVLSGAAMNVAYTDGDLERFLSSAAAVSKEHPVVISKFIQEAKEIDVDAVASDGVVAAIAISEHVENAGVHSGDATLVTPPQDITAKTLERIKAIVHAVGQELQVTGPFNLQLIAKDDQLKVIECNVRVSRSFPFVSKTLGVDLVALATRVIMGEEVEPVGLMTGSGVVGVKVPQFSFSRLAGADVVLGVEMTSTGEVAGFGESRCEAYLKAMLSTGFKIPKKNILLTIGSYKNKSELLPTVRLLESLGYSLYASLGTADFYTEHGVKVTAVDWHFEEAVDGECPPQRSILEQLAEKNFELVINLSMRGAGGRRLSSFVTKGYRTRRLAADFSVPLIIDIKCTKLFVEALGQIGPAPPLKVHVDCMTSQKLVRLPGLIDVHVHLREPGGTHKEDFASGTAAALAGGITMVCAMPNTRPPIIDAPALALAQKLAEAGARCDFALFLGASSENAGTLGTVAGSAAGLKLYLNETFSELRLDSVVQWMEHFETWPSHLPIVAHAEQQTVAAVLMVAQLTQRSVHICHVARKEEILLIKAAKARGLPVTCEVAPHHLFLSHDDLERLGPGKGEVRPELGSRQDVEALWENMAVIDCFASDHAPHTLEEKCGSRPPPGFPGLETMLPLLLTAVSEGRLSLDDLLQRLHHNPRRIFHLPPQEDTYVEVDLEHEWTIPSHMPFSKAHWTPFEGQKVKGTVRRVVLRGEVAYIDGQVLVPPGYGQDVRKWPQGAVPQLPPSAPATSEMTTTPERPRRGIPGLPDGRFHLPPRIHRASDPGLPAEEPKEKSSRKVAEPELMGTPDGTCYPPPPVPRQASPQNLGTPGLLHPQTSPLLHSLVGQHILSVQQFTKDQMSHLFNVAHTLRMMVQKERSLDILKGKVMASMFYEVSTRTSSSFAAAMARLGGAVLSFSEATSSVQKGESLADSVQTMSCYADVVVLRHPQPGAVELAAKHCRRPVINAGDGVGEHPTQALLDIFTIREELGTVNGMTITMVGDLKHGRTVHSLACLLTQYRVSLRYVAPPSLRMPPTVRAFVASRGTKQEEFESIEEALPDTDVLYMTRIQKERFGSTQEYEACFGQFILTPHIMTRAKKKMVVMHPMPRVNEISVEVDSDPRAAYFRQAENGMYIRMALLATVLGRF
# UniProt Q9Y6E2: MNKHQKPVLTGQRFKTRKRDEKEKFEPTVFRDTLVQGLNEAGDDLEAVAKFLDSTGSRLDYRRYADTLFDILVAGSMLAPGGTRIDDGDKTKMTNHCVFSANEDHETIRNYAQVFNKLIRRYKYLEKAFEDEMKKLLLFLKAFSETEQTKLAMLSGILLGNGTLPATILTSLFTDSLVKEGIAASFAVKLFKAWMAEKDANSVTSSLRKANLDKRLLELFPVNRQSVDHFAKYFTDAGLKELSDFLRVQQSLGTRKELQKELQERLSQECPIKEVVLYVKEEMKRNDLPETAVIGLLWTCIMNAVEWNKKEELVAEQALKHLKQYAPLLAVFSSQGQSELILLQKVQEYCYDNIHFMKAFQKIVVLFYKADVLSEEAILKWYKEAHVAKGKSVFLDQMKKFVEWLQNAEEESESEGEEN
# UniProt Q5T6V5: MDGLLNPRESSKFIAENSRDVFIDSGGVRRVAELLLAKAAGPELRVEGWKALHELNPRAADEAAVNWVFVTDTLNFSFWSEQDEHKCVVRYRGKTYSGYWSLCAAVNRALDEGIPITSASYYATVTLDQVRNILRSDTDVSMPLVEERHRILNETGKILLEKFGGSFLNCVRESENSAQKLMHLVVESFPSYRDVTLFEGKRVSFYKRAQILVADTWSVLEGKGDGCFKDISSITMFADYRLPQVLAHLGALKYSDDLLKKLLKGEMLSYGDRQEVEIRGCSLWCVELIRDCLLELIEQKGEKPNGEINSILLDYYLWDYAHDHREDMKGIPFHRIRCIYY
# UniProt Q9H3J6: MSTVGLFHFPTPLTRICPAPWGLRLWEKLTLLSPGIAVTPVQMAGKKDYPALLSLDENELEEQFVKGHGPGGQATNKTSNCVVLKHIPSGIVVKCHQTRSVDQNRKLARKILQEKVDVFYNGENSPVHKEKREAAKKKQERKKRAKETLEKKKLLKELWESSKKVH
# Some of the results follow.
# Tests used:
# Test in all cases: log2 fold change, soluble protein after heating vs DMSO (PISA); higher = thermal stabilisation; K562 cells, 10 uM, 30 min; active = over 0.2 and 3.5 SD of the protein, either way, in both replicates (recomputed)
# saracatinib = compound: CN1CCN(CCOc2cc(OC3CCOCC3)c3c(Nc4c(Cl)ccc5c4OCO5)ncnc3c2)CC1 [saracatinib]
# Outline: (§1)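 K562 cells (2×10^6 cells/mL) were treated with 10 μM compound for 30 min, and aliquots were heated for 3 min over 48°C-58°C. Pooled aliquots were extracted in PBS with 0.5% NP-40 at 4°C, and the supernatant after 21,000xg for 90 min was measured by TMTpro 16plex LC-MS/MS with channel sums equalised. Reported thermal stability, relative to control samples and from duplicates, is a log2 fold change.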
# sotrastaurin = compound: CN1CCN(c2nc(C3=C(c4c[nH]c5ccccc45)C(=O)NC3=O)c3ccccc3n2)CC1 [sotrastaurin]
# Outline: as §1
# alvocidib = compound: CN1CC[C@H](c2c(O)cc(O)c3c(=O)cc(-c4ccccc4Cl)oc23)[C@H](O)C1 [alvocidib]
# Outline: as §1
# Tubastatin A = compound: CN1CCc2c(c3ccccc3n2Cc2ccc(C(=O)NO)cc2)C1 [Tubastatin A]
# Outline: as §1
# [1] = compound: CNC(=O)C1=CC=CC=C1NC2=NC(=NC=C2Cl)NC3=C(C=C(C=C3)N4CCOCC4)OC
# Outline: as §1
# defactinib = compound: CNC(=O)c1ccc(Nc2ncc(C(F)(F)F)c(NCc3nccnc3N(C)S(C)(=O)=O)n2)cc1 [defactinib]
# Outline: as §1
# rucaparib = compound: CNCc1ccc(-c2[nH]c3cc(F)cc4c3c2CCNC4=O)cc1 [rucaparib]
# Outline: as §1
# [2] = compound: CNc1nc(-c2ccc3c(N)n[nH]c3c2)cc(N2C[C@@H](C(=O)NC3CCCCC3)CC[C@H]2C)n1
# Outline: as §1
# encorafenib = compound: COC(=O)N[C@@H](C)CNc1nccc(-c2cn(C(C)C)nc2-c2cc(Cl)cc(NS(C)(=O)=O)c2F)n1 [encorafenib]
# Outline: as §1
# [3] = compound: COC(=O)[C@H](CCSC)NC(=O)C1=C(C=C(C=C1)NC[C@H](CS)N)C2=CC=CC=C2
# Outline: as §1
Target,log2 fold change (saracatinib),log2 fold change (sotrastaurin),log2 fold change (alvocidib),log2 fold change (Tubastatin A),log2 fold change [1],log2 fold change (defactinib),log2 fold change (rucaparib),log2 fold change [2],log2 fold change (encorafenib),log2 fold change [3]
CAPN1 (UniProt P07384),inactive: 0.077,inactive: 0.019,inactive: -0.026,inactive: -0.035,inactive: -0.048,inactive: 0.003,inactive: -0.054,inactive: -0.008,inactive: -0.027,inactive: 0.01
CAMLG (UniProt P49069),inactive: 0.017,inactive: -0.006,inactive: -0.015,inactive: -0.003,inactive: -0.062,inactive: 0,inactive: 0.029,inactive: -0.029,inactive: 0.113,inactive: 0.018
CAPN2 (UniProt P17655),inactive: 0.054,inactive: 0.029,inactive: -0.028,inactive: -0.002,inactive: -0.039,inactive: 0.008,inactive: -0.062,inactive: 0.014,inactive: -0.043,inactive: 0.033
BUD31 (UniProt P41223),inactive: -0.004,inactive: 0.011,inactive: -0.022,inactive: -0.01,inactive: 0.007,inactive: -0.002,inactive: 0.048,inactive: -0.026,inactive: -0.064,inactive: -0.021
C1QBP (UniProt Q07021),inactive: 0.031,inactive: 0.092,inactive: -0.043,inactive: 0.079,inactive: 0.049,inactive: -0.101,inactive: -0.022,inactive: 0.07,inactive: -0.006,inactive: -0.001
C1orf50 (UniProt Q9BV19),inactive: -0.073,inactive: 0.037,inactive: -0.149,inactive: 0.105,inactive: -0.251,inactive: -0.18,inactive: -0.016,inactive: -0.075,inactive: -0.011,inactive: 0.031
C3orf33 (UniProt Q6P1S2),inactive: 0.006,inactive: 0.051,inactive: -0.004,inactive: 0.022,inactive: 0.001,inactive: 0.005,inactive: -0.047,inactive: 0.004,inactive: 0.092,inactive: -0.064
C7 (UniProt P10643),inactive: 0.166,inactive: 0.027,inactive: -0.122,inactive: -0.515,inactive: 0.06,inactive: -0.024,inactive: -0.346,inactive: -0.063,inactive: 0.057,inactive: 0.275
BTD isoform 3 (UniProt P43251),inactive: 0.087,inactive: 0.042,inactive: -0.051,inactive: -0.084,inactive: -0.059,inactive: -0.06,inactive: 0.043,inactive: 0,inactive: -0.102,inactive: 0.252
CAP1 (UniProt Q01518),inactive: 0.001,inactive: 0,inactive: -0.049,inactive: -0.002,inactive: 0.049,inactive: 0.023,inactive: -0.057,inactive: -0.01,inactive: 0,inactive: -0.003
C2orf76 (UniProt Q3KRA6),inactive: -0.012,inactive: -0.263,,inactive: 0.093,inactive: 0.069,inactive: 0.044,inactive: 0.137,inactive: 0.049,inactive: 0.066,inactive: -0.263
CA8 (UniProt P35219),inactive: -0.054,inactive: -0.023,,inactive: 0.084,inactive: 0.118,inactive: -0.163,inactive: 0.068,inactive: 0.018,inactive: 0.024,inactive: 0.014
BZW1 isoform 3 (UniProt Q7L1Q6),inactive: -0.083,inactive: -0.207,,inactive: 0.047,inactive: -0.054,inactive: -0.141,inactive: 0.128,inactive: 0.027,inactive: 0.158,inactive: -0.1
C22orf39 (UniProt Q6P5X5),inactive: 0.076,inactive: -0.028,,inactive: -0.013,inactive: 0.129,,,inactive: 0.056,,
C15orf41 (UniProt Q9Y2V0),inactive: 0.009,inactive: 0.042,,inactive: 0.011,inactive: -0.137,inactive: -0.008,inactive: 0.081,inactive: -0.017,inactive: 0.01,inactive: 0.079
BTN2A1 (UniProt Q7KYR7),inactive: -0.084,,inactive: -0.094,inactive: 0.047,inactive: 0.015,inactive: -0.086,inactive: -0.004,inactive: 0.092,inactive: -0.082,inactive: 0.093
CALCOCO1 (UniProt Q9P1Z2),inactive: 0.025,,inactive: -0.047,inactive: 0.008,inactive: -0.006,inactive: -0.062,inactive: 0.004,inactive: -0.003,inactive: -0.067,inactive: 0.013

Target,log2 fold change (saracatinib),log2 fold change (sotrastaurin),log2 fold change (alvocidib),log2 fold change (Tubastatin A),log2 fold change [1],log2 fold change (defactinib),log2 fold change (rucaparib),log2 fold change [2],log2 fold change (encorafenib),log2 fold change [3]
C19orf54 (UniProt Q5BKX5),inactive: 0.049,inactive: -0.221,,inactive: 0.092,inactive: 0.002,inactive: -0.136,inactive: 0.255,inactive: -0.108,inactive: 0.005,inactive: -0.031
CA1 (UniProt P00915),inactive: 0.014,inactive: -0.001,,inactive: -0.013,inactive: 0.009,inactive: -0.057,inactive: -0.036,inactive: -0.016,inactive: -0.002,inactive: 0.004
CAB39L (UniProt Q9H9S4),inactive: 0.043,inactive: -0.213,,inactive: 0.056,inactive: 0.049,inactive: -0.09,inactive: 0.003,inactive: 0.015,inactive: -0.144,inactive: 0.043
BTRC (UniProt Q9Y297),inactive: 0.067,inactive: -0.042,,inactive: 0.087,inactive: -0.069,inactive: -0.042,,inactive: -0.092,,inactive: -0.017
CAD (UniProt P27708),inactive: -0.112,inactive: 0.022,,inactive: -0.044,inactive: -0.211,inactive: 0.097,inactive: 0.132,inactive: 0.052,inactive: 0.052,inactive: -0.051
BUB1B isoform 3 (UniProt O60566),inactive: -0.071,inactive: -0.113,,inactive: 0.031,inactive: 0.042,inactive: -0.076,inactive: 0.006,inactive: -0.031,inactive: 0.097,inactive: -0.029
BZW2 (UniProt Q9Y6E2),inactive: -0.007,inactive: -0.032,,inactive: -0.004,inactive: -0.006,inactive: -0.057,inactive: -0.022,inactive: 0.001,inactive: 0.058,inactive: -0.026
C9orf64 (UniProt Q5T6V5),inactive: -0.053,inactive: -0.124,,inactive: 0.036,inactive: -0.04,inactive: -0.067,active: 0.377,inactive: -0.018,inactive: 0.047,inactive: 0.016
C12orf65 (UniProt Q9H3J6),inactive: 0.11,inactive: 0.068,inactive: 0.354,,inactive: 0.024,inactive: 0.078,inactive: 0.069,inactive: 0.07,inactive: 0.034,inactive: 0.066
C4A (UniProt P0C0L4),inactive: 0.108,inactive: 0.268,,inactive: -0.039,inactive: -0.021,inactive: 0.072,inactive: -0.075,inactive: -0.188,inactive: -0.047,inactive: -0.039
CARD11 (UniProt Q9BXL7),inactive: -0.264,inactive: -0.064,inactive: 0.141,,,,,inactive: 0.11,,
C6orf136 isoform 4 (UniProt Q5SQH8),inactive: 0.087,inactive: -0.072,,inactive: -0.153,inactive: -0.112,,inactive: 0.01,inactive: -0.3,inactive: -0.1,
BYSL (UniProt Q13895),inactive: -0.042,inactive: -0.101,,inactive: 0.136,inactive: 0.034,inactive: -0.004,inactive: -0.004,inactive: 0.094,inactive: 0.034,inactive: -0.073
C7orf50 (UniProt Q9BRJ6),inactive: -0.129,,inactive: 0.023,inactive: 0.076,,inactive: 0.073,,inactive: 0.028,,inactive: -0.062
C4orf33 (UniProt Q8N1A6),inactive: -0.027,inactive: -0.091,,inactive: -0.024,inactive: 0.048,inactive: -0.071,inactive: 0.091,inactive: 0.013,inactive: -0.076,inactive: 0.042
C6orf120 (UniProt Q7Z4R8),inactive: -0.097,inactive: 0.008,,inactive: 0.041,inactive: -0.145,inactive: 0.024,inactive: 0.127,inactive: 0.041,inactive: 0.074,inactive: -0.045

# Another view of some results above:
Target | log2 fold change (saracatinib) | log2 fold change (sotrastaurin) | log2 fold change (alvocidib) | log2 fold change (Tubastatin A) | log2 fold change [1] | log2 fold change (defactinib) | log2 fold change (rucaparib) | log2 fold change [2] | log2 fold change (encorafenib) | log2 fold change [3]
C9orf64 (UniProt Q5T6V5) | inactive: -0.053 | inactive: -0.124 |  | inactive: 0.036 | inactive: -0.04 | inactive: -0.067 | active: 0.377 | inactive: -0.018 | inactive: 0.047 | inactive: 0.016
C12orf65 (UniProt Q9H3J6) | inactive: 0.11 | inactive: 0.068 | inactive: 0.354 |  | inactive: 0.024 | inactive: 0.078 | inactive: 0.069 | inactive: 0.07 | inactive: 0.034 | inactive: 0.066
